The record followed here is paper PMC10780275, “Evaluation of Anti-Trypanosoma cruzi Activity of Chemical Constituents from Baccharis sphenophylla Isolated Using High-Performance Countercurrent Chromatography” (Molecules, 2023).

The series deals with T. cruzi amastigote. Description: Activity against intracellular amastigotes of T. cruzi within infected macrophages (Giemsa, light microscope, 48 h). In kind it is cell-based, Trypanosoma cruzi (Y strain). To be noted: selectivity index = CC50 against NCTC cells / EC50 against amastigotes. From the text:
The experimental animals were sourced from the animal breeding facility located at Instituto Adolfo Lutz in São Paulo State, Brazil. Peritoneal macrophages were extracted from female BALB/c mice for intracellular experiments, while male BALB/c mice were utilized to sustain T. cruzi. These animals were provided unlimited access to both water and food, residing in sterilized enclosures within a meticulously regulated environment. All procedures were previously approved by the Animal Ethics Commission of Instituto Adolfo Lutz.
NCTC cells (clone 929, ATCC) were cultured in RPMI-1640 supplemented with 10% of fetal bovine serum (FBS), at 37 °C within a 5% CO2-humidified incubator. To collect peritoneal macrophages, the abdominal cavity of female BALB/c mice was rinsed with an RPMI-1640 medium, containing 10% FBS. […]
The EC50 values for compounds 1–8 against intracellular amastigotes of T. cruzi were determined within infected macrophages. […] Trypomastigotes, previously derived from infected LLC-MK2 cells, underwent washing in an RPMI-1640 medium, were quantified, and were then employed to infect the macrophages at a concentration of 1 × 10^6 trypomastigotes per well. […] At the final stage of the experiment, the chamber slides were fixed using MeOH and stained with Giemsa before being assessed under a light microscope (Thermo EVOS M5000). […]

For the compound `COc1c(O)cc2oc(-c3ccc(O)cc3)cc(=O)c2c1O` [Compound 4, Hispidulin], the “T. cruzi Amastigote SI” value is reported as above 12.6.
